For this assay, the target named is T1, His-YdfD (E. coli BL21(DE3)) (UniProt P29010).
T1 sequence: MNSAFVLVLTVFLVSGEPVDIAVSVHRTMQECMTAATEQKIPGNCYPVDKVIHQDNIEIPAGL
Description: affinity purification with mass spectrometry; His-YdfD made in E. coli BL21(DE3) as bait for the whole cell lysate on Ni-NTA; 3 washes with 20 mM Tris, 250 mM NaCl, pH 8.0; SDS-PAGE, trypsin, MS.

These are yes or no findings as the source states them, for the method shown. Binding seen in cells or lysates may run through a third protein. These calls come from enrichment with a bait or labelling near it, and not all partners need be listed. Sequences can lack the tags named with a protein.

B1: IspG-His (enzyme, E. coli BL21(DE3), UniProt P62620 1-372, looked up)
chain: MHNQAPIQRRKSTRIYVGNVPIGDGAPIAVQSMTNTRTTDVEATVNQIKALERVGADIVRVSVPTMDAAEAFKLIKQQVNVPLVADIHFDYRIALKVAEYGVDCLRINPGNIGNEERIRMVVDCARDKNIPIRIGVNAGSLEKDLQEKYGEPTPQALLESAMRHVDHLDRLNFDQFKVSVKASDVFLAVESYRLLAKQIDQPLHLGITEAGGARSGAVKSAIGLGLLLSEGIGDTLRVSLAADPVEEIKVGFDILKSLRIRSRGINFIACPTCSRQEFDVIGTVNALEQRLEDIITPMDVSIIGCVVNGPGEALVSTLGVTGGNKKSGLYEDGVRKDRLDNNDMIDQLEARIRAKASQLDEARRIDVQQVEK
notes: ispG amplified from the E. coli BL21(DE3) genome; also called His-tagged ispG; GcpE; source: E. coli BL21(DE3); coexpressed with YdfD constructs, in lysate; and purified (Ni-NTA, Superdex 200)
For B1, the binding entry is listed as “binds”.

The record behind these values is PMC8835842, “YdfD, a Lysis Protein of the Qin Prophage, Is a Specific Inhibitor of the IspG-Catalyzed Step in the MEP Pathway of Escherichia coli” (International Journal of Molecular Sciences, 2022).
